Measured values as given in the supplement of paper PMC12819154, “High-throughput peptide-centric local stability assay extends protein–ligand identification to membrane proteins, tissues and bacteria” (Nature Structural & Molecular Biology, 2025).
The list shows a part of the results. Most values lie at the level of the controls, where differences are scatter.

Sequences of proteins named here, by UniProt entry; tags and fusion partners are left off. A change or cut given only in a name is not applied to a line headed by its entry.
UniProt Q9Y385: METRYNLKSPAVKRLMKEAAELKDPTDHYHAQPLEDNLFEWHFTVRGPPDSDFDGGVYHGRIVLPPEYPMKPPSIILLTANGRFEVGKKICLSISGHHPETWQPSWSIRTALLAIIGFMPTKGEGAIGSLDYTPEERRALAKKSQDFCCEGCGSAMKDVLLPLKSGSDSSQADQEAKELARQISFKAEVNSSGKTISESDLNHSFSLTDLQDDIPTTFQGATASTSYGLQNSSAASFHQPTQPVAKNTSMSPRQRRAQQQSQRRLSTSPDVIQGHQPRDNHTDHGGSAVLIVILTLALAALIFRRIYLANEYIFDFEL
UniProt Q9Y6D0, whole entry: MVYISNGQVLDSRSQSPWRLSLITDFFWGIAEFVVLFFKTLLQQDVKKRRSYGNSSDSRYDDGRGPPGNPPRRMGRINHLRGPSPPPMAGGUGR
UniProt Q9Y2Y9: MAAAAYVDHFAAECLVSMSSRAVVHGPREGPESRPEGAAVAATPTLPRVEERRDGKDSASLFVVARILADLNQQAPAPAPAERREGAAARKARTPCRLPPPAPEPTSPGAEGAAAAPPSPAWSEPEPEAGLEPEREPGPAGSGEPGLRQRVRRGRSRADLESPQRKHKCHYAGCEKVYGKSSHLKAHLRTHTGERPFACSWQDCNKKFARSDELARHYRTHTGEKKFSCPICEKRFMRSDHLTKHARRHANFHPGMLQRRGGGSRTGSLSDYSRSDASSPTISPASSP
UniProt Q9Y6I9: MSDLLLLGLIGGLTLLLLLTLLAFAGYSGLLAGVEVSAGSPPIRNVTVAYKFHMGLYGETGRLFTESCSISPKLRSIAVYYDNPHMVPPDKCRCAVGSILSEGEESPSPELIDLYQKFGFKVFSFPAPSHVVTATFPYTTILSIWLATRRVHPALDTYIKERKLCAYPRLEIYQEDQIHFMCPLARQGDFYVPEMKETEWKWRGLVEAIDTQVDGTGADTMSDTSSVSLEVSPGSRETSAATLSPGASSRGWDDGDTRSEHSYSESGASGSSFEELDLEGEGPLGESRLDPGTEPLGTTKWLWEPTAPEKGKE
UniProt Q9Y4G8: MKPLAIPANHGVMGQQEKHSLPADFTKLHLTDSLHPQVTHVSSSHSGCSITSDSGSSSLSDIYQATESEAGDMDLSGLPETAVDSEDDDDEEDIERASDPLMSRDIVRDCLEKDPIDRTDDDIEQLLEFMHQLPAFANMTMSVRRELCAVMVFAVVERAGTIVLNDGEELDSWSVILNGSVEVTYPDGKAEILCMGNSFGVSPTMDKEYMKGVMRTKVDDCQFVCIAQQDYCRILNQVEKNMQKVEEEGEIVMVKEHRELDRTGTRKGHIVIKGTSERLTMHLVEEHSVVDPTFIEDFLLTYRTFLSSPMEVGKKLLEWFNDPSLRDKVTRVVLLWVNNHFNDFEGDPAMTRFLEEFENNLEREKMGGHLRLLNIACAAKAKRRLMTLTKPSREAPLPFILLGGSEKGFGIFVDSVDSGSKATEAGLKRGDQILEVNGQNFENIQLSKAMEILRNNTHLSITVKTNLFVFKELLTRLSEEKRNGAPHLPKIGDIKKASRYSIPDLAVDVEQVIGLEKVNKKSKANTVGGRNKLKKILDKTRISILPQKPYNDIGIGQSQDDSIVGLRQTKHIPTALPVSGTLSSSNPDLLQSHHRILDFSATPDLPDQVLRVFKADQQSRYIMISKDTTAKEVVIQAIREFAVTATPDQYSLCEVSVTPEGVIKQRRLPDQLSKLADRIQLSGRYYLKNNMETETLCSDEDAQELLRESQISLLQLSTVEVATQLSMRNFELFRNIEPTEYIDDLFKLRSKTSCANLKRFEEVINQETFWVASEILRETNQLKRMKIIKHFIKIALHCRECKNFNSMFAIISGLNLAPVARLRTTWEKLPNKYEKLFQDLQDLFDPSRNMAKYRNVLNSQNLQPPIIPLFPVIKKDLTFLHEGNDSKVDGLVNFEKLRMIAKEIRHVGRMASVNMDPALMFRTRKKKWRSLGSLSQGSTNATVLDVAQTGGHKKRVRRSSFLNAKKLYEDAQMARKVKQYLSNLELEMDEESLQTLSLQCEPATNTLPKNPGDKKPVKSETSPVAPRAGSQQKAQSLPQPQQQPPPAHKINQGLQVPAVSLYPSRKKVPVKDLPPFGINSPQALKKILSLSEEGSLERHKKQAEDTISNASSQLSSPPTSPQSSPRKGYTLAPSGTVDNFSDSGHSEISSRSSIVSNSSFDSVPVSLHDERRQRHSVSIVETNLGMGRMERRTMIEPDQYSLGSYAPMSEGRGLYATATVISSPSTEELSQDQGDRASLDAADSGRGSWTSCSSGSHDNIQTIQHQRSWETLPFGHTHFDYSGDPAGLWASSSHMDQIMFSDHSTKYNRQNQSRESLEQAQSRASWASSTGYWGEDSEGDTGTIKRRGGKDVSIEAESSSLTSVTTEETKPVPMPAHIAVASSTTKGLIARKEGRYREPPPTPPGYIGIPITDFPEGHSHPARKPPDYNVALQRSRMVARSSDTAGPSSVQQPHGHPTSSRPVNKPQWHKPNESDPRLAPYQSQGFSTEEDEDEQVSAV
UniProt Q9Y5W8: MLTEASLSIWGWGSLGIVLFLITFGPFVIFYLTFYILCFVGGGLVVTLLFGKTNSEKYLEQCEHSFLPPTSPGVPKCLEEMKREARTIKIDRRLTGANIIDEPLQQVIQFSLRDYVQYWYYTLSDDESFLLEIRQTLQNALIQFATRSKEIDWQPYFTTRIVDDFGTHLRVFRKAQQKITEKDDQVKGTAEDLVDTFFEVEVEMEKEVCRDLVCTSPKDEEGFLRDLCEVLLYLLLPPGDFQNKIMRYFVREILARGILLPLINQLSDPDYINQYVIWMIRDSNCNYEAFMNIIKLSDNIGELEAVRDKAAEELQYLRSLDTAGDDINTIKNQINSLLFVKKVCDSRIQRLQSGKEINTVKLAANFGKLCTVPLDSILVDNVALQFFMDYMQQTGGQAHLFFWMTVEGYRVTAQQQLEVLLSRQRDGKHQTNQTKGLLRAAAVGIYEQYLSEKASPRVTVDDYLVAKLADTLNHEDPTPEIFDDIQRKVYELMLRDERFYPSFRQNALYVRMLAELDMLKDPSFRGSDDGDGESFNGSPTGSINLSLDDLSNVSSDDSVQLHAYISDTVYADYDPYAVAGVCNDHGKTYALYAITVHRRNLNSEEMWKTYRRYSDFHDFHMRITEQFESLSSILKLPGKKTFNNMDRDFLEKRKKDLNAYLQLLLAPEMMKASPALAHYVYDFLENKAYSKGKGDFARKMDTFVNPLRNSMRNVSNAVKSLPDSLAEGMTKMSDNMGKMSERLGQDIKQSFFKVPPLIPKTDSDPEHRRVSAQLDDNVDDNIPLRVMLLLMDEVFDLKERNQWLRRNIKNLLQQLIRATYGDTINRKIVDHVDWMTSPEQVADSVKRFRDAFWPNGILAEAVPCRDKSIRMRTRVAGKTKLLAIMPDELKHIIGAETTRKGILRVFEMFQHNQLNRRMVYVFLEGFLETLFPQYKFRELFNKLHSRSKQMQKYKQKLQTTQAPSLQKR
UniProt Q9Y3I0: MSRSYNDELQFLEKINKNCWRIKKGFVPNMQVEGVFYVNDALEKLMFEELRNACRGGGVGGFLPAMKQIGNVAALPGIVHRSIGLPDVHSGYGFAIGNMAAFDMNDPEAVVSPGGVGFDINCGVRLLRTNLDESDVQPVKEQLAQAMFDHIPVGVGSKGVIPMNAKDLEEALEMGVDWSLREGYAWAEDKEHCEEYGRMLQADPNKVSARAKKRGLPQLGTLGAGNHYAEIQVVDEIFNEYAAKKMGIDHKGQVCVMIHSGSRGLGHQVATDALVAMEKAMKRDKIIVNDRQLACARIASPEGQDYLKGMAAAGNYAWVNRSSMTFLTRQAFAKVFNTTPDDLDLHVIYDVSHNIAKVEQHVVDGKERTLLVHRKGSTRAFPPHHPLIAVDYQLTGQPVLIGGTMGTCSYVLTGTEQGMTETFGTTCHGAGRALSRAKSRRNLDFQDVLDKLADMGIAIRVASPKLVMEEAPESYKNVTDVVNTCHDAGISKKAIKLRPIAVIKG
UniProt Q9Y2X9: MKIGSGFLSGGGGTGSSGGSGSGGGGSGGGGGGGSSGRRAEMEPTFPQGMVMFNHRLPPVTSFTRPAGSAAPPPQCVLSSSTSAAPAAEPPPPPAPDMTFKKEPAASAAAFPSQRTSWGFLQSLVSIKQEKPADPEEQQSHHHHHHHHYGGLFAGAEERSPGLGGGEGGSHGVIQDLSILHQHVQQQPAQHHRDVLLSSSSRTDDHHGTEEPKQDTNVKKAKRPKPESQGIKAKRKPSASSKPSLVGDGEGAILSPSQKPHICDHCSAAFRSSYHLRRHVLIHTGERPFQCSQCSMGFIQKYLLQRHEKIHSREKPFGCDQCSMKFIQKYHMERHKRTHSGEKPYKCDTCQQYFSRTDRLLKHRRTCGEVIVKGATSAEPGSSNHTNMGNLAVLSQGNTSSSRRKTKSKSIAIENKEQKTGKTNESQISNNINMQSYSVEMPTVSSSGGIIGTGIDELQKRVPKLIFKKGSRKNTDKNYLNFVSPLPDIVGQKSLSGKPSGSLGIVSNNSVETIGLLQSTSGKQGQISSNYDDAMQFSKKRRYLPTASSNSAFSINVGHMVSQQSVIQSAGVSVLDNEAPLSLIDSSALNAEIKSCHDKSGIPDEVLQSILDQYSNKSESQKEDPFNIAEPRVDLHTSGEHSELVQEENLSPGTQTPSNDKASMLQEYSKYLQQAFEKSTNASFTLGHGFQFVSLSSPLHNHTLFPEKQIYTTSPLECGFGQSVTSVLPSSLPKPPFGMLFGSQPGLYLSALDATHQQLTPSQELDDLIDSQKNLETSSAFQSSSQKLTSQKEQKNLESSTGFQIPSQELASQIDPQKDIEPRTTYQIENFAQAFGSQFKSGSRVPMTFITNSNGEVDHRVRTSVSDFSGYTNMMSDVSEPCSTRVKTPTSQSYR
UniProt Q9Y2K1: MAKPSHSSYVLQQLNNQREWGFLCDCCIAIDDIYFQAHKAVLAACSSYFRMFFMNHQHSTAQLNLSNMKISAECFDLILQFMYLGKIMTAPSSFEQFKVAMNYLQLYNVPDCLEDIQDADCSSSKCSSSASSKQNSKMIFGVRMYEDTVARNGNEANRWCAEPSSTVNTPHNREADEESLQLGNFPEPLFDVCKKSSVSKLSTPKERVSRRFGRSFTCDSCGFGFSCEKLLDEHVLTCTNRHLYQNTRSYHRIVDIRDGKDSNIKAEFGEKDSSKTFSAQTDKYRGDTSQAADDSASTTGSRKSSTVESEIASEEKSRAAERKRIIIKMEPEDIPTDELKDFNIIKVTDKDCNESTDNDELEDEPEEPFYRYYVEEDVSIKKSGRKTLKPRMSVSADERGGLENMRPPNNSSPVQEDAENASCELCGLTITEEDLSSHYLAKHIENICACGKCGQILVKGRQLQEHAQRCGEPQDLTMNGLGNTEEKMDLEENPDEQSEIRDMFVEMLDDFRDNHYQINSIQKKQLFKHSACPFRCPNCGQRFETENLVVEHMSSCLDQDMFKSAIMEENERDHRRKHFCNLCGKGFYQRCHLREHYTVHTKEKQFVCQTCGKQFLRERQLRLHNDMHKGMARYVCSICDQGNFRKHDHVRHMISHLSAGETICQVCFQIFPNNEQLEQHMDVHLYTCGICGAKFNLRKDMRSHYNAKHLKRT
UniProt Q9Y606: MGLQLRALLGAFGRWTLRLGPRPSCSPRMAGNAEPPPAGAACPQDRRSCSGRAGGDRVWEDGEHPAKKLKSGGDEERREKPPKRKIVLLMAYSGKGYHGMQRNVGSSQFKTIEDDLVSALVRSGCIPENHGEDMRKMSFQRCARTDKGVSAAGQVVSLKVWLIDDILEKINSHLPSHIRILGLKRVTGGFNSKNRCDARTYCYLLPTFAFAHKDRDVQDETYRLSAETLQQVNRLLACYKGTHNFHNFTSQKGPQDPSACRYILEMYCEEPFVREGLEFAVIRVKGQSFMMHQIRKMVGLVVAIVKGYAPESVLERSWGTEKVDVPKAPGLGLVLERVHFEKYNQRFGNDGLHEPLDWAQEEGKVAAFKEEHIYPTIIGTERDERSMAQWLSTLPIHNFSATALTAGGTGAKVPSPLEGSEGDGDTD
UniProt Q9Y6I3: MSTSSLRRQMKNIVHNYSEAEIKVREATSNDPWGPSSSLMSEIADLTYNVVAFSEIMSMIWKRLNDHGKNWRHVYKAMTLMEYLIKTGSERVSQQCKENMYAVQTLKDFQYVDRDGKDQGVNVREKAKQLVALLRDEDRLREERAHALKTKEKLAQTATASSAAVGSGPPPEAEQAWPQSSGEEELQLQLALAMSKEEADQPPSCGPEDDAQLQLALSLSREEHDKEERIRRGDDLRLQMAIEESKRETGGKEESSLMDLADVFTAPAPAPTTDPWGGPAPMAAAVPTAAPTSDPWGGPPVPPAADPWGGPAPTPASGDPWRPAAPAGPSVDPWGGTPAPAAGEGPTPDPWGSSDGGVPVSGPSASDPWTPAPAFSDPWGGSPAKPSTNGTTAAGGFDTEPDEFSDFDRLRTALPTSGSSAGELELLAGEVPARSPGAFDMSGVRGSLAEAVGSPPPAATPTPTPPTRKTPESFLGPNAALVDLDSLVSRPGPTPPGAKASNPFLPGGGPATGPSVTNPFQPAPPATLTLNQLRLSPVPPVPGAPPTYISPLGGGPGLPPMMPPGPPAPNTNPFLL

compound: Cc1nc(Nc2ncc(C(=O)Nc3c(C)cccc3Cl)s2)cc(N2CCN(CCO)CC2)n1 [dasatinib]; test: log2 fold change of tryptic peptide abundance, ligand vs vehicle (limited proteolysis) (log2 ratio); higher = more trypsin-susceptible (destabilized); conditions: ligand concentration: 5 uM; sample: K562 cleared lysate

Target | log2 fold change
SLC30A1 (peptide sequence: AENIPAVVIEIK, peptide start residue: 485) (UniProt Q9Y6M5) | 0.0671
UBE2J1 (peptide sequence: RLSTSPDVIQGHQPR, peptide start residue: 264) (UniProt Q9Y385) | -0.3
NUDC (peptide sequence: DMVVDIQR, peptide start residue: 197) (UniProt Q9Y266) | -0.203
UniProt Q9Y6D0 (peptide sequence: SYGNSSDSR, peptide start residue: 51) | 0.135
ATP6V1D (peptide sequence: SGKDRIEIFPSR, peptide start residue: 2) (UniProt Q9Y5K8) | 0.273
RAD54B (peptide sequence: QGLCGAVVDLTK, peptide start residue: 786) (UniProt Q9Y620) | 0.2
YARS2 (peptide sequence: KANAIPDGPR, peptide start residue: 415) (UniProt Q9Y2Z4) | -0.332
KLF13 (peptide sequence: EGPESRPEGAAVAATPTLPR, peptide start residue: 29) (UniProt Q9Y2Y9) | 0.31
R3HCC1 (peptide sequence: VPSSDGLSGPCR, peptide start residue: 84) (UniProt Q9Y3T6) | -0.557
UniProt Q9Y448 (peptide sequence: DLTQKVELLEK, peptide start residue: 202) | 0.407
TEX264 (peptide sequence: LDPGTEPLGTTK, peptide start residue: 289) (UniProt Q9Y6I9) | 0.0892
RAPGEF2 (peptide sequence: AQSLPQPQQQPPPAHK, peptide start residue: 1034) (UniProt Q9Y4G8) | -0.233
SNX13 (peptide sequence: KMDTFVNPLR, peptide start residue: 699) (UniProt Q9Y5W8) | 0.44
LUC7L2 (peptide sequence: VVAEKQEKR, peptide start residue: 231) (UniProt Q9Y383) | -0.41
NFS1 (peptide sequence: VYFHTDAAQAVGK, peptide start residue: 227) (UniProt Q9Y697) | -0.704
DMXL1 (peptide sequence: GSEDFLVIHAR, peptide start residue: 2691) (UniProt Q9Y485) | -0.225
UniProt Q9Y3I0 (peptide sequence: EGYAWAEDKEHCEEYGR, peptide start residue: 182) | 0.189
PLEKHM1 (peptide sequence: SWISEDDFYRPSR, peptide start residue: 440) (UniProt Q9Y4G2) | -0.0471
ZNF281 (peptide sequence: DVLLSSSSR, peptide start residue: 194) (UniProt Q9Y2X9) | -0.408
UniProt Q9Y2B5 (peptide sequence: QMMENLVIAK, peptide start residue: 188) | 0.259
ZBTB1 (peptide sequence: YYVEEDVSIKK, peptide start residue: 372) (UniProt Q9Y2K1) | 0.257
PUS1 (peptide sequence: VAAFKEEHIYPTIIGTERDER, peptide start residue: 365) (UniProt Q9Y606) | 0.0791
UniProt Q9Y6R6 (peptide sequence: HQKIHMGEK, peptide start residue: 351) | -0.0971
CAPN7 (peptide sequence: KVIIDDQLPVDHK, peptide start residue: 344) (UniProt Q9Y6W3) | -0.35
UniProt Q9Y5S2 (peptide sequence: KVLFYEEELVRR, peptide start residue: 693) | 0.166
EPN1 (peptide sequence: ENMYAVQTLK, peptide start residue: 98) (UniProt Q9Y6I3) | -0.111

Another view of part of the listing above:
RAPGEF2 (peptide sequence: AQSLPQPQQQPPPAHK, peptide start residue: 1034) (UniProt Q9Y4G8)
  log2 fold change: -0.233
ZBTB1 (peptide sequence: YYVEEDVSIKK, peptide start residue: 372) (UniProt Q9Y2K1)
  log2 fold change: 0.257
